Laboratory results from PMC7661038.
No constants are given. Whether binding was seen depends on the method and setting. In cells and extracts the contact can be indirect. A yes stands for co-enrichment or nearness to the bait. Other partners may have been found.

Amino acid sequences for entries named in this document (tags omitted).
UniProt Q6XZL8: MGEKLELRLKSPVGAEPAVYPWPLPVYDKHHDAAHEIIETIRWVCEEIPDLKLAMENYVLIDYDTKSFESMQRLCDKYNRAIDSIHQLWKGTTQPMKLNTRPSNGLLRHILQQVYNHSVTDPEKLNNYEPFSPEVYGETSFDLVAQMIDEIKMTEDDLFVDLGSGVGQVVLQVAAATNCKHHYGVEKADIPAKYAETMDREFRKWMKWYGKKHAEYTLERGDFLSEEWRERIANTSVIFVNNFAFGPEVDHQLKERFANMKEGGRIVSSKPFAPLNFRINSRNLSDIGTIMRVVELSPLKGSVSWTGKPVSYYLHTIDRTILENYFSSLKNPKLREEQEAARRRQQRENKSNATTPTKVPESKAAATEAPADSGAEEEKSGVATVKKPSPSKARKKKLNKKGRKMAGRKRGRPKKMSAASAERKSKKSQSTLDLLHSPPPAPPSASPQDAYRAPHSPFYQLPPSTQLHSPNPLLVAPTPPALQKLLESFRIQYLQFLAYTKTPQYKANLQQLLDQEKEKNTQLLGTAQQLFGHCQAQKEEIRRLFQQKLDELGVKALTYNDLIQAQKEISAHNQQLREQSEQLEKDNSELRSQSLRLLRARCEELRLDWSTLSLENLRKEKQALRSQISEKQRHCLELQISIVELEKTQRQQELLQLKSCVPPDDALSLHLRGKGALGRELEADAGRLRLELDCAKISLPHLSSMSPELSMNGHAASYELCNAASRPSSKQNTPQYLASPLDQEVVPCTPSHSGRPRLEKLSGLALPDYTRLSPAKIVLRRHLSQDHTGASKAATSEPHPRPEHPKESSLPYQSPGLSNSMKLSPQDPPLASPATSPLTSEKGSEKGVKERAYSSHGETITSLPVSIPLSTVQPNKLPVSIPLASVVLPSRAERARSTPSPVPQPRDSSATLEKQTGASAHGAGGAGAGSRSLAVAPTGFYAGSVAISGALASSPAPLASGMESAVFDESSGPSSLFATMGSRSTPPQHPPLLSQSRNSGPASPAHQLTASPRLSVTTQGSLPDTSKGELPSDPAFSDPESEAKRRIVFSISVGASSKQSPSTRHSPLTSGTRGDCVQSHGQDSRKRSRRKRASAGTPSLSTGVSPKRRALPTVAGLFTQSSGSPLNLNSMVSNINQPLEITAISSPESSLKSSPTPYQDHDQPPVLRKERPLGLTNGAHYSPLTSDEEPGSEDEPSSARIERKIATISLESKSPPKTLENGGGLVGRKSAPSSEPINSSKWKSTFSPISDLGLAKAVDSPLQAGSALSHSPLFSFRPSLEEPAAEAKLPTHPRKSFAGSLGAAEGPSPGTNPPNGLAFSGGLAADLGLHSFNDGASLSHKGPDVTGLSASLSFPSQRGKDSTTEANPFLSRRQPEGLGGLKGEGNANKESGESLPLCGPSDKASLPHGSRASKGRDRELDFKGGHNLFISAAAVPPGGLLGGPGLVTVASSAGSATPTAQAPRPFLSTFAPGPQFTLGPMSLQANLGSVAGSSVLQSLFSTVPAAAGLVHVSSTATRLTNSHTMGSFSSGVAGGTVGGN

Biological target: T1, Zc3h10-TAP (mouse) (UniProt Q8R205)
T1 sequence: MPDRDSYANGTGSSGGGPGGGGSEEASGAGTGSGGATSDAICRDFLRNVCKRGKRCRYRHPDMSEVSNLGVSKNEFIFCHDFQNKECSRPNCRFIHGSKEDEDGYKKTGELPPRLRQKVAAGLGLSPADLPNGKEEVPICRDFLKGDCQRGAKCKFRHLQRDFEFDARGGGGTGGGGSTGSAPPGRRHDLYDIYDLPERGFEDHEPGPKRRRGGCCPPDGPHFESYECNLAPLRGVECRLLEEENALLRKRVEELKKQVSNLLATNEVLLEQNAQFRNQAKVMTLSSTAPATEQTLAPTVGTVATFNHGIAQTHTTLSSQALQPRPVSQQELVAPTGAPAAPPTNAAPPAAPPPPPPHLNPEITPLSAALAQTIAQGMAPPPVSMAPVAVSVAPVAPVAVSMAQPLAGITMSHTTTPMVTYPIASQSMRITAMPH
Assay: affinity purification with mass spectrometry; Zc3h10-TAP from transfected HEK293 lysate bound to Streptavidin resin, resin re-incubated overnight with 200 µg of BAT nuclear extracts in SBB; sequential (tandem) purification, SDS-PAGE, bands specific to the Zc3h10-TAP lane excised and identified by mass spectrometry

binding: binds
Substance: endogenous Dot1l (from UniProt Q6XZL8 1-1540) (enzyme)
